Results published in the supplement of paper PMC10849652.
The list shows a part of the results.

Sequences of proteins named here, by UniProt entry; tags and fusion partners are left off. A change or cut given only in a name is not applied to a line headed by its entry.
UniProt Q14680: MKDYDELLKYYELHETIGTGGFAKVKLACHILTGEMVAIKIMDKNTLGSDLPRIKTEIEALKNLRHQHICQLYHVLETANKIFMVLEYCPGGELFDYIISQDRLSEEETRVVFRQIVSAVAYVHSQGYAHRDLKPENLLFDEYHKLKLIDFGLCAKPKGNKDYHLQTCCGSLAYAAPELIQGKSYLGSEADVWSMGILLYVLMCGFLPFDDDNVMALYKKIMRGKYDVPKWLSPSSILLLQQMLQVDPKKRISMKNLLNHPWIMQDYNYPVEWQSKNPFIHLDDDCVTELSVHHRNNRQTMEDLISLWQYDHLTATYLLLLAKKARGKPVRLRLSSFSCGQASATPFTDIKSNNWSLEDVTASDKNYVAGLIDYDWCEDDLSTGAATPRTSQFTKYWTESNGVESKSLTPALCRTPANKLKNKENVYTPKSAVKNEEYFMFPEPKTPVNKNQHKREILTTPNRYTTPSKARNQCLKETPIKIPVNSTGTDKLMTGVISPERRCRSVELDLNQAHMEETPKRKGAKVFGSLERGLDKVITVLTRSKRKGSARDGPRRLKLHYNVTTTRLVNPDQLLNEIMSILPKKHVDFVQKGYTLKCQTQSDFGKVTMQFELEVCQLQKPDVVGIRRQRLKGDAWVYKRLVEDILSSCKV
UniProt Q9GZY8: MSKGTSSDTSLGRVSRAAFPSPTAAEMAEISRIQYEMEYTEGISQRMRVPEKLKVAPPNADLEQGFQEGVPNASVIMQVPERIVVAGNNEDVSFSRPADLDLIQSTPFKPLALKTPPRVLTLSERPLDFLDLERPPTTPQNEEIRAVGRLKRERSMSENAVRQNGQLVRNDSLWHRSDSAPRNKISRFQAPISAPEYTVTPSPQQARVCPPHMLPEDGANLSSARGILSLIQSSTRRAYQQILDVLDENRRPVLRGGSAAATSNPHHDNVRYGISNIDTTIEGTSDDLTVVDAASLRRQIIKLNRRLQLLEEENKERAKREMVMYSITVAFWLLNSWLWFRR
UniProt Q96G25: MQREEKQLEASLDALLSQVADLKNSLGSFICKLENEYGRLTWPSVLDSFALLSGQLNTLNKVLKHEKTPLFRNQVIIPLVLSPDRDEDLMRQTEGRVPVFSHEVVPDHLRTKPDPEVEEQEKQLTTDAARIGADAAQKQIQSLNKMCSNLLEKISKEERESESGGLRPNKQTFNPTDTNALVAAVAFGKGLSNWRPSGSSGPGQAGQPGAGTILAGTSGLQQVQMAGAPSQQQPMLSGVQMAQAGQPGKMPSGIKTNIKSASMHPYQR
UniProt Q8NE86: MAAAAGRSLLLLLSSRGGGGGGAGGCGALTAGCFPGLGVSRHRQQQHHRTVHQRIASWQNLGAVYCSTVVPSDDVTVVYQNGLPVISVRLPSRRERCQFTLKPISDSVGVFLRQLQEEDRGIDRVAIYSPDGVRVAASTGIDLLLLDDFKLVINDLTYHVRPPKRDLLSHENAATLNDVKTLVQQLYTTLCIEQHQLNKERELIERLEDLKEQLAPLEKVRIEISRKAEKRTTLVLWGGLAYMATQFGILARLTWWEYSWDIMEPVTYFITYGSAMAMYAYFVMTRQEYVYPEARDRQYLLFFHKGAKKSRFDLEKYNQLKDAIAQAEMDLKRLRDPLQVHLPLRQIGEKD
UniProt Q71SY5: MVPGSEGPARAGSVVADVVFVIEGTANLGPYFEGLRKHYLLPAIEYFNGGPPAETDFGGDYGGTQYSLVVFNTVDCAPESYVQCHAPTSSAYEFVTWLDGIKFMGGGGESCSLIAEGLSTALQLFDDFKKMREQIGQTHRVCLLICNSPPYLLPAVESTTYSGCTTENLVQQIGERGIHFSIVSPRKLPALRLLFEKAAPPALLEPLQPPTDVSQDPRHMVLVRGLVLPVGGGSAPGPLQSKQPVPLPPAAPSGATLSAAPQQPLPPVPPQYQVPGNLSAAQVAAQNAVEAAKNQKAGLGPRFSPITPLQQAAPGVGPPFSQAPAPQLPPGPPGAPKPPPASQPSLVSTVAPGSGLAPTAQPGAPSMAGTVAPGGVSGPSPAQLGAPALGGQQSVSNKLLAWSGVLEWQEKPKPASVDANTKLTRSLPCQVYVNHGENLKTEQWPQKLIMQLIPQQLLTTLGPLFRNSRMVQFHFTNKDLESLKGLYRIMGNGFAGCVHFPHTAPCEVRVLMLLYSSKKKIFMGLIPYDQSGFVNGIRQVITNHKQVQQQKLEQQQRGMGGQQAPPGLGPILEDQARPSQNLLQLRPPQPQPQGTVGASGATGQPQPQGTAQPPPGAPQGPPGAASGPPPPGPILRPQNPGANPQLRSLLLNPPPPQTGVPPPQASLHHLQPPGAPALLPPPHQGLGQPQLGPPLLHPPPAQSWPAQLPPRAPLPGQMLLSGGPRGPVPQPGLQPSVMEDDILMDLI
UniProt Q96PC5: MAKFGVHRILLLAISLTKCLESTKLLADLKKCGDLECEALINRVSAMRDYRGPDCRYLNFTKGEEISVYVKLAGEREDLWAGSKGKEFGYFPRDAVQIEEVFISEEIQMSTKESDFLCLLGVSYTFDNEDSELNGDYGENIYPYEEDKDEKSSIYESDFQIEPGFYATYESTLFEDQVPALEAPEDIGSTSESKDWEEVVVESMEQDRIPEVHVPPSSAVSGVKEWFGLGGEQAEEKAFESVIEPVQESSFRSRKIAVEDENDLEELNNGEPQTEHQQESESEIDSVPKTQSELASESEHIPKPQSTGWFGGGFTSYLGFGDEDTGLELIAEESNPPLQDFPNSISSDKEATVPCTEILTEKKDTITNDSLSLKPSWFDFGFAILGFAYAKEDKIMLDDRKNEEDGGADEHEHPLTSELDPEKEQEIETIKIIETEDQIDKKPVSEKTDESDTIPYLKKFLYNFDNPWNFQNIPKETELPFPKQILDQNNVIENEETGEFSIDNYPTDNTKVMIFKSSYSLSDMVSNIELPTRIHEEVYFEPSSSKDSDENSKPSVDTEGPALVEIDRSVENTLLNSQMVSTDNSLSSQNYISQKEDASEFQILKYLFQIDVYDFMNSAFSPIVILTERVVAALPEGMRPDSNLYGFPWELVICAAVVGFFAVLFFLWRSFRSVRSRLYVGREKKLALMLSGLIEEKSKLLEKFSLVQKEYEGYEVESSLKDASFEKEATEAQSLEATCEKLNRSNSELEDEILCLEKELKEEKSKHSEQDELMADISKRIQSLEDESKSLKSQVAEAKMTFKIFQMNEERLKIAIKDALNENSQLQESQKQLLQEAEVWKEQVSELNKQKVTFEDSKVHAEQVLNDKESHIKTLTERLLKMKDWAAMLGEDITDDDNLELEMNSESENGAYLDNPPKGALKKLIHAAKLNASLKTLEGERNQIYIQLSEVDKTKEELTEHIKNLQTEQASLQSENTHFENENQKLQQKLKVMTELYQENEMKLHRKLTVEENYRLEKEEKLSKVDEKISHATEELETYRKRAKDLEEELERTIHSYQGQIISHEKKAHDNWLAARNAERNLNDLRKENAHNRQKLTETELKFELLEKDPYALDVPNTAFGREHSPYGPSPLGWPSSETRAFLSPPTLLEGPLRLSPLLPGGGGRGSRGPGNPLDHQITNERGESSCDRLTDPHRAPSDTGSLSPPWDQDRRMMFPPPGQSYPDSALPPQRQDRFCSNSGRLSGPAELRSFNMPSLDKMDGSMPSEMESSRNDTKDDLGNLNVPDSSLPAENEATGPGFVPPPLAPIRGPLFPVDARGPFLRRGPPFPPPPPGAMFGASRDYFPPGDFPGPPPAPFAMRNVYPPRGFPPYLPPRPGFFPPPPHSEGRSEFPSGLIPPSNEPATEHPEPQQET
UniProt Q6P2C8: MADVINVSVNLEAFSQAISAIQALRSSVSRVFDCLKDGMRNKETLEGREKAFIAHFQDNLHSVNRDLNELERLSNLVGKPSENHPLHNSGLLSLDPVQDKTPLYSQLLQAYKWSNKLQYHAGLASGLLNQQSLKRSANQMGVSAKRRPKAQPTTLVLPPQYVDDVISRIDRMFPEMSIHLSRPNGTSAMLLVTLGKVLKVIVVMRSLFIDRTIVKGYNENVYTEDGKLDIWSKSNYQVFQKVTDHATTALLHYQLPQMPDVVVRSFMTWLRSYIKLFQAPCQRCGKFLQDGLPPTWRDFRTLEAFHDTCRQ
UniProt Q6N075: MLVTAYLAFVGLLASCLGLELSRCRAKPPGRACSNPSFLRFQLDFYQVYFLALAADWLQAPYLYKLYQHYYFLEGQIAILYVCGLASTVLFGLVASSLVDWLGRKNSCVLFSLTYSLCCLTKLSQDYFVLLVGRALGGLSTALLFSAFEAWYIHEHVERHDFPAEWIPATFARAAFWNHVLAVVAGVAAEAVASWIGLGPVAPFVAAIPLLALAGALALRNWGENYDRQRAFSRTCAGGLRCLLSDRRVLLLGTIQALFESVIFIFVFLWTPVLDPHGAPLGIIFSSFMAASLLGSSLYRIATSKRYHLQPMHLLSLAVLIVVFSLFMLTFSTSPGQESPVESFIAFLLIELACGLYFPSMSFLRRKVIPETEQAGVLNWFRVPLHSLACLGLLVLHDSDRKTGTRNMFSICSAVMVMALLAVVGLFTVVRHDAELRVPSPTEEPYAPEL
UniProt Q6UB28: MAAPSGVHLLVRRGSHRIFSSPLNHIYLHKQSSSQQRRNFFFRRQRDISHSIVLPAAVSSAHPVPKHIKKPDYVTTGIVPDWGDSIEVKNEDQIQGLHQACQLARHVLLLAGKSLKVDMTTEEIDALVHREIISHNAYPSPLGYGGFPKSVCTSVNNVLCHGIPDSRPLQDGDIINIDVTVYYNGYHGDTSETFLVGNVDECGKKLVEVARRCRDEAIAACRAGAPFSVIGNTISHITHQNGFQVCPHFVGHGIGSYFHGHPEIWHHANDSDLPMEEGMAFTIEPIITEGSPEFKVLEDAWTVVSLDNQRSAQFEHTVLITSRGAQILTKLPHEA
UniProt Q6P9B6: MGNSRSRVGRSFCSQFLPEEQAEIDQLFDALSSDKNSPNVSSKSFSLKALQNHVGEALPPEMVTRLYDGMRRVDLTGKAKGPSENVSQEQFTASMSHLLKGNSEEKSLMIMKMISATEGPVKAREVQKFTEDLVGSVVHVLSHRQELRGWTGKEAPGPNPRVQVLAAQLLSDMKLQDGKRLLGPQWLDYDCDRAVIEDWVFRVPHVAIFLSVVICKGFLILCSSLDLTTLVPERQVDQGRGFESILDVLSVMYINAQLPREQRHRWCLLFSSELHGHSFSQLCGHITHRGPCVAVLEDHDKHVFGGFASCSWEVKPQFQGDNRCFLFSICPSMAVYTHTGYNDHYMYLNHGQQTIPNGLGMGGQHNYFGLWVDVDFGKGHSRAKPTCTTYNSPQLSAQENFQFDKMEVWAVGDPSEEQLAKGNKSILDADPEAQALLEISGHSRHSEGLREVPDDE
UniProt P10620: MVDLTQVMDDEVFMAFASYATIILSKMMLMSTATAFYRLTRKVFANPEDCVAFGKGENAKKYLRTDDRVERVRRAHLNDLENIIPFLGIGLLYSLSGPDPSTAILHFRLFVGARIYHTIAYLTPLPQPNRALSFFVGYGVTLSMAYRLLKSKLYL
UniProt O95402: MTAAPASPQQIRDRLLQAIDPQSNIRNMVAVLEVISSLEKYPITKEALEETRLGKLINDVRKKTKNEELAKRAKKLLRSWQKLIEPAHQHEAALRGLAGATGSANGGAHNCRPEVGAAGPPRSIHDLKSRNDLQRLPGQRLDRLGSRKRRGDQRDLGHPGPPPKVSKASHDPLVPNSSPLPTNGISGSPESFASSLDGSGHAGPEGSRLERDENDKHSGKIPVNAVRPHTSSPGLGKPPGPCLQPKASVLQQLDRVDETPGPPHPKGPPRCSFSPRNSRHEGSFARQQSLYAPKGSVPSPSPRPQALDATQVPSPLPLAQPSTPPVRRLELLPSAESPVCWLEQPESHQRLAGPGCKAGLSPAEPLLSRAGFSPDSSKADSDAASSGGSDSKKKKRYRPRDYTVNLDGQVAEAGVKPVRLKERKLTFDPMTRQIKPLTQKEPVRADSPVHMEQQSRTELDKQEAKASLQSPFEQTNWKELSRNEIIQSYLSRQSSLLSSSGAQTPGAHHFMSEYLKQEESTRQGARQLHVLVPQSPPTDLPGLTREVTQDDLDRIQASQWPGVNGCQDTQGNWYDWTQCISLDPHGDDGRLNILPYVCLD
UniProt A0JLT2: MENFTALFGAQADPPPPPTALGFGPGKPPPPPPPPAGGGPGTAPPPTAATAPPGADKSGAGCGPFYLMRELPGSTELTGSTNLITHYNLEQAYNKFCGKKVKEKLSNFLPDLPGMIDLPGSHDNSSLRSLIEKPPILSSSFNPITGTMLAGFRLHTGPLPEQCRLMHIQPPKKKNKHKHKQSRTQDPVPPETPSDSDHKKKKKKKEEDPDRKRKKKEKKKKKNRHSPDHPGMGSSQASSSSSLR
UniProt O75586: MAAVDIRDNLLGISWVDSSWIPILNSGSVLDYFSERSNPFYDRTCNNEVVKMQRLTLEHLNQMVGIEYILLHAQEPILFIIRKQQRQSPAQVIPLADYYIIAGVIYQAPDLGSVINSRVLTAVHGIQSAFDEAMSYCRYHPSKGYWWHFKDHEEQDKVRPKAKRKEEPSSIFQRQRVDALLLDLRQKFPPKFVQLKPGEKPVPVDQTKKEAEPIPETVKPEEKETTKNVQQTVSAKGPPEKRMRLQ

Assays:
Test in all cases: log2 fold change, soluble protein after heating vs DMSO (PISA); higher = thermal stabilisation; K562 cells, 10 uM, 30 min; active = over 0.2 and 3.5 SD of the protein, either way, in both replicates (recomputed)
[1] = compound: CS(=O)(=O)c1ccc(-c2cnc(N)c(C(=O)Nc3ccccc3)n2)cc1
Method in brief: (§1)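 K562 cells at 2×10^6 cells/mL were treated with 10 μM compound for 30 min. Aliquots were heated for 3 min across 48°C-58°C, pooled, and extracted in PBS with 0.5% NP-40 at 4°C; soluble protein was the supernatant after 21,000xg for 90 min. Soluble protein was quantified by TMTpro 16plex LC-MS/MS with channel sums equalised, and reported as log2 fold change in thermal stability against DMSO controls, with values from duplicates.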

crizotinib = compound: C[C@@H](Oc1cc(-c2cnn(C3CCNCC3)c2)cnc1N)c1c(Cl)ccc(F)c1Cl [crizotinib]
Method in brief: as §1

[2] = compound: C[C@@H]1COCCN1C2=NC(=NC(=C2)C3(CC3)S(=O)(=O)C)C4=C5C=CNC5=CC=C4
Method in brief: as §1

[3] = compound: C[C@H](C1=CC=C(C=C1)C(=O)NC2=C3C=CNC3=NC=C2)N
Method in brief: as §1

gandotinib = compound: Cc1cc(Nc2cc(CN3CCOCC3)c3nc(C)c(Cc4ccc(Cl)cc4F)n3n2)n[nH]1 [gandotinib]
Method in brief: as §1

[4] = compound: Cc1cc(SCc2sc(-c3ccc(C(F)(F)F)cc3)nc2C)ccc1OCC(=O)O
Method in brief: as §1

doramapimod = compound: Cc1ccc(-n2nc(C(C)(C)C)cc2NC(=O)Nc2ccc(OCCN3CCOCC3)c3ccccc23)cc1 [doramapimod]
Method in brief: as §1

bafetinib = compound: Cc1ccc(NC(=O)c2ccc(CN3CC[C@H](N(C)C)C3)c(C(F)(F)F)c2)cc1Nc1nccc(-c2cncnc2)n1 [bafetinib]
Method in brief: as §1

[5] = compound: Cc1cccc(CC(=O)N2CCc3c2ccc(-c2cn(C)c4ncnc(N)c24)c3F)n1
Method in brief: as §1

nilotinib = compound: Cc1cn(-c2cc(NC(=O)c3ccc(C)c(Nc4nccc(-c5cccnc5)n4)c3)cc(C(F)(F)F)c2)cn1 [nilotinib]
Method in brief: as §1

[6] = compound: Cc1nc(Nc2n[nH]c3c2CN(C(=O)N[C@H](CN(C)C)c2ccccc2)C3(C)C)c2sccc2n1
Method in brief: as §1

dasatinib = compound: Cc1nc(Nc2ncc(C(=O)Nc3c(C)cccc3Cl)s2)cc(N2CCN(CCO)CC2)n1 [dasatinib]
Method in brief: as §1

[7] = compound: Cc1ncc(-c2ccnc(Nc3ccc(S(C)(=O)=O)cc3)n2)n1C(C)C
Method in brief: as §1

[8] = compound: Cn1cc(-c2ccc3c(c2)CCN3C(=O)Cc2cccc(C(F)(F)F)c2)c2c(N)ncnc21
Method in brief: as §1

tipifarnib = compound: Cn1cncc1[C@@](N)(c1ccc(Cl)cc1)c1ccc2c(c1)c(-c1cccc(Cl)c1)cc(=O)n2C [tipifarnib]
Method in brief: as §1

ispinesib = compound: Cc1ccc(C(=O)N(CCCN)[C@@H](c2nc3cc(Cl)ccc3c(=O)n2Cc2ccccc2)C(C)C)cc1 [ispinesib]
Method in brief: as §1

[9] = compound: Cn1cc(-c2ccc3nnc(C(F)(F)c4ccc5ncccc5c4)n3n2)cn1
Method in brief: as §1

mubritinib = compound: FC(F)(F)c1ccc(/C=C/c2nc(COc3ccc(CCCCn4ccnn4)cc3)co2)cc1 [mubritinib]
Method in brief: as §1

duvelisib = compound: C[C@H](Nc1ncnc2nc[nH]c12)c1cc2cccc(Cl)c2c(=O)n1-c1ccccc1 [duvelisib]
Method in brief: as §1

Measured: log2 fold change

MELK (UniProt Q14680)
inactive: [1] 0.109 | crizotinib -0.128 | [2] -0.099 | [3] 0.054 | gandotinib -0.046 | [4] -0.047 | doramapimod -0.011 | bafetinib -0.06 | [5] 0.086 | nilotinib 0.033 | dasatinib -0.149 | [7] 0.14 | [8] -0.092 | tipifarnib 0.097
active: [6] -1.04

MED17 (UniProt Q9NVC6)
inactive: [1] -0.02 | crizotinib -0.004 | [2] 0.028 | [3] 0.119 | gandotinib 0.007 | [4] 0.109 | doramapimod 0.022 | ispinesib -0.049 | [5] -0.033 | nilotinib 0.069 | [6] 0.079 | dasatinib -0.152 | [7] -0.108 | [8] -0.033 | [9] -0.069 | tipifarnib 0.077 | mubritinib 0.015

MFF (UniProt Q9GZY8)
inactive: [1] -0.03 | crizotinib -0.051 | [2] -0.052 | [3] -0.023 | gandotinib -0.036 | [4] -0.085 | doramapimod -0.018 | ispinesib -0.088 | bafetinib -0.065 | [5] -0.049 | nilotinib -0.057 | [6] -0.073 | dasatinib 0.014 | [7] -0.017 | [8] -0.011 | [9] -0.05 | tipifarnib 0.073 | mubritinib 0.035

MEPCE (UniProt Q7L2J0)
active: [6] -0.337
inactive: [1] -0.006 | crizotinib 0.111 | [2] 0.03 | [3] -0.005 | gandotinib -0.051 | [4] 0.04 | doramapimod -0.22 | ispinesib -0.065 | bafetinib -0.12 | [5] 0.065 | nilotinib 0 | dasatinib -0.116 | [7] -0.123 | [8] 0.023 | [9] 0.061 | tipifarnib 0.029 | mubritinib -0.018

MED1 (UniProt Q15648)
inactive: [1] 0.011 | crizotinib 0.014 | [2] 0.043 | [3] 0.04 | gandotinib -0.025 | [4] -0.05 | doramapimod 0.11 | ispinesib -0.078 | bafetinib 0.016 | [5] -0.018 | nilotinib 0.057 | [6] 0 | dasatinib 0.037 | [8] -0.064 | [9] -0.089 | tipifarnib 0.069 | mubritinib 0.004
active: [7] -0.217

MED8 isoform 2 (UniProt Q96G25)
inactive: [1] 0.021 | crizotinib 0.037 | [2] -0.049 | [3] -0.077 | [4] -0.079 | doramapimod -0.031 | ispinesib 0.012 | bafetinib -0.026 | nilotinib 0.016 | [6] -0.015 | dasatinib 0.034 | [7] -0.171 | [8] -0.086 | [9] 0.013 | tipifarnib 0.012 | mubritinib -0.059

MCU (UniProt Q8NE86)
inactive: [1] -0.013 | crizotinib -0.159 | [2] 0.015 | [3] 0.001 | gandotinib -0.172 | [4] 0.054 | doramapimod -0.013 | ispinesib -0.1 | bafetinib -0.173 | [5] 0.032 | nilotinib -0.017 | [6] 0.128 | dasatinib -0.055 | [7] -0.026 | [8] -0.03 | [9] 0 | tipifarnib -0.005 | mubritinib 0.024

MED25 isoform 3 (UniProt Q71SY5)
inactive: [1] 0.061 | crizotinib 0.021 | [3] 0 | gandotinib 0.19 | [4] 0.162 | doramapimod 0.085 | ispinesib -0.018 | bafetinib 0.09 | [5] 0.217 | nilotinib -0.013 | [6] 0.003 | dasatinib -0.049 | [7] -0.09 | [8] -0.071 | [9] 0.076 | tipifarnib 0.054 | mubritinib -0.308

MIA2 (UniProt Q96PC5)
inactive: [1] 0.001 | crizotinib 0.015 | [2] 0.006 | [3] -0.059 | gandotinib -0.034 | [4] 0.044 | doramapimod -0.01 | ispinesib 0.011 | bafetinib -0.068 | [5] -0.029 | nilotinib -0.002 | [6] -0.048 | dasatinib -0.051 | [7] -0.038 | [8] -0.058 | [9] 0.041 | tipifarnib 0.029 | mubritinib -0.046

MED27 (UniProt Q6P2C8)
inactive: [1] 0.06 | [2] 0.053 | [3] -0.031 | duvelisib 0.09 | gandotinib 0.061 | [4] -0.009 | bafetinib 0.04 | [5] -0.048 | nilotinib 0.046 | [6] -0.015 | dasatinib -0.127 | [7] 0.109 | [8] -0.075 | mubritinib -0.07

MDC1 (UniProt Q14676)
inactive: [1] -0.053 | crizotinib -0.109 | [2] 0.041 | [3] 0.107 | gandotinib 0.423 | [4] -0.031 | doramapimod 0.178 | ispinesib -0.217 | bafetinib -0.1 | [5] -0.269 | nilotinib 0.037 | [6] 0.02 | dasatinib 0.398 | [7] -0.191 | [8] -0.031 | [9] -0.043 | tipifarnib 0.058 | mubritinib -0.038

MFSD5 isoform 2 (UniProt Q6N075)
inactive: [1] 0.069 | crizotinib -0.039 | [2] -0.04 | [3] -0.046 | gandotinib -0.045 | [4] -0.004 | doramapimod 0.004 | ispinesib 0.051 | bafetinib -0.126 | [5] 0.009 | nilotinib 0.054 | [6] 0.055 | dasatinib -0.029 | [7] -0.057 | [8] -0.048 | [9] 0.009 | tipifarnib 0.141 | mubritinib 0.128

METAP1D (UniProt Q6UB28)
inactive: [1] -0.009 | crizotinib -0.041 | [2] 0.147 | [3] -0.037 | [4] 0.01 | doramapimod -0.091 | ispinesib -0.032 | bafetinib -0.089 | nilotinib -0.114 | [6] 0.036 | dasatinib 0.007 | [7] 0.079 | [8] -0.034 | [9] -0.071 | tipifarnib -0.023 | mubritinib 0.028

MEAK7 (UniProt Q6P9B6)
active: crizotinib -0.259
inactive: [1] -0.005 | [2] 0.049 | [3] 0.005 | gandotinib -0.224 | [4] 0.024 | doramapimod 0.031 | ispinesib -0.139 | bafetinib -0.094 | [5] 0.042 | nilotinib 0.024 | [6] -0.036 | dasatinib -0.078 | [7] 0.025 | [8] 0.02 | [9] -0.03 | tipifarnib -0.022 | mubritinib 0.052

MGST1 (UniProt P10620)
inactive: [1] -0.006 | crizotinib 0.152 | [2] -0.01 | gandotinib 0.044 | [4] -0.123 | doramapimod -0.053 | ispinesib -0.027 | bafetinib -0.001 | [5] -0.053 | nilotinib -0.006 | [6] 0.078 | dasatinib 0.084 | [7] -0.039 | [8] -0.013 | [9] 0.014 | tipifarnib 0.131 | mubritinib -0.005
active: [3] -0.257

MED26 (UniProt O95402)
inactive: [1] 0.113 | crizotinib -0.095 | [3] -0.185 | duvelisib 0.013 | gandotinib -0.149 | [4] -0.052 | doramapimod 0.135 | ispinesib -0.004 | [5] 0.033 | dasatinib 0.046 | [8] 0.032 | [9] -0.258 | tipifarnib 0.062

MAST4 (UniProt O15021)
active: [6] -0.757
inactive: [1] -0.041 | crizotinib -0.188 | [2] 0.064 | [3] -0.114 | gandotinib -0.301 | [4] 0.053 | doramapimod -0.088 | ispinesib 0.007 | bafetinib -0.029 | [5] 0.034 | nilotinib -0.073 | dasatinib -0.112 | [7] -0.004 | [8] 0.131 | [9] 0.09 | tipifarnib -0.087 | mubritinib -0.003

MED19 (UniProt A0JLT2)
inactive: [1] 0.117 | crizotinib -0.536 | [2] -0.084 | gandotinib -0.154 | doramapimod 0.013 | ispinesib -0.069 | bafetinib 0.061 | [5] -0.041 | nilotinib 0.017 | [6] 0.071 | [7] -0.142 | [9] -0.112 | mubritinib -0.232

MED6 (UniProt O75586)
inactive: [1] -0.178 | crizotinib -0.469 | [2] -0.296 | [3] -0.143 | gandotinib -0.087 | doramapimod -0.135 | bafetinib 0.129 | [5] 0.123 | nilotinib -0.185 | [6] 0.138 | [7] 0.108 | [8] -0.024 | mubritinib -0.08
